Laboratory results taken from article PMC8421687.
No constants are given. Whether binding was seen depends on the method and setting. In cells and extracts the contact can be indirect. Some binding calls cover weakened binding; strength is not graded here.

Chains of the proteins cited; added tags and fusions are not shown.
UniProt P27361: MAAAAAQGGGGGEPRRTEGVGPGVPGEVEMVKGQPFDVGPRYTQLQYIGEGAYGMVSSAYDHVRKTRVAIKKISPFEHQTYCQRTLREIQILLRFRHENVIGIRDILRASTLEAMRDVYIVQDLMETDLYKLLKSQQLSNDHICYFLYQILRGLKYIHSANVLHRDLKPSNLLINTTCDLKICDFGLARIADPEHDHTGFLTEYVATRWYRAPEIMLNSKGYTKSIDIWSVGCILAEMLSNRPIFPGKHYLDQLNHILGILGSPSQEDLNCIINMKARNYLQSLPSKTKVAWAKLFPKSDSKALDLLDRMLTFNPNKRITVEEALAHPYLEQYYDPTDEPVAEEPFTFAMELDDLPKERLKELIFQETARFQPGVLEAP
UniProt P28482: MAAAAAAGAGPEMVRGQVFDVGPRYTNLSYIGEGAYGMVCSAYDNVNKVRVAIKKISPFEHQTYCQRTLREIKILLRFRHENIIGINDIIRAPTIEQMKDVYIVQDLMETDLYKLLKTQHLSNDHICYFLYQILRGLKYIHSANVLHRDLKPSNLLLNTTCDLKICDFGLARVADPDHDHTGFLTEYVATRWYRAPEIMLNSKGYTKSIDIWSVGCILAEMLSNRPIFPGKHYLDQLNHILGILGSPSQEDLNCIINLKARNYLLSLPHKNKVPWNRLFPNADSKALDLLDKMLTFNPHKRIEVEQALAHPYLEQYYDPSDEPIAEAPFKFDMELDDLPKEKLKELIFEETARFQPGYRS

Biological target: T1, Ran binding protein 3 (RanBP3) (human (endogenous in K562)) (UniProt Q9H6Z4)
T1 sequence: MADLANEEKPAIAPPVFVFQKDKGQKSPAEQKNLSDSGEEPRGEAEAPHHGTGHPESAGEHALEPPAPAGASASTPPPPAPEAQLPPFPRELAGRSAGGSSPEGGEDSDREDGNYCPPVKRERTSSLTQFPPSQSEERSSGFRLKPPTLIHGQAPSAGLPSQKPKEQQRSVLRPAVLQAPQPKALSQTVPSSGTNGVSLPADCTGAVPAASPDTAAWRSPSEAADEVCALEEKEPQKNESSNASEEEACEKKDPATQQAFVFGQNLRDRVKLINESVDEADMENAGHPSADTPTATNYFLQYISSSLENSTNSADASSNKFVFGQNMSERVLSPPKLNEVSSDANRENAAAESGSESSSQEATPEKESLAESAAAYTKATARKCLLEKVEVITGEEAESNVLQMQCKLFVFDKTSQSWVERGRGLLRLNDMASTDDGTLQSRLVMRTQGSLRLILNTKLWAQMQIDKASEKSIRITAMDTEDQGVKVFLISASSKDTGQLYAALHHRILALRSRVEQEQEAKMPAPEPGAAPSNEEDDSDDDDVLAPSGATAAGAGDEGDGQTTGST
Assay: co-IP; anti-RanBP3 antibody (or isotype-matched control IgG) on protein A/G magnetic beads, incubated 2 h at 4°C with total protein of K562-shNT and K562-shRanBP3 cells in IP lysis buffer with PMSF; washed 4 times; western blot with anti-ERK1/2, anti-CRM1 and anti-SMAD2/3

Row | Substance | binding
1 | extracellular signal-regulated kinase 1 (ERK1) (from UniProt P27361 1-379) | binds
2 | extracellular signal-regulated kinase 2 (ERK2) (from UniProt P28482 1-360) | binds
